Measurements reported in paper PMC10132990.
These are yes or no findings as the source states them, for the method shown. Binding seen in cells or lysates may run through a third protein. Some entries that bind do so weakly or less than the wild type. Where a sequence is shown, tags or fusion partners need not be part of it.

Sequences of proteins named here, by UniProt entry; tags and fusion partners are left off.
UniProt P26040: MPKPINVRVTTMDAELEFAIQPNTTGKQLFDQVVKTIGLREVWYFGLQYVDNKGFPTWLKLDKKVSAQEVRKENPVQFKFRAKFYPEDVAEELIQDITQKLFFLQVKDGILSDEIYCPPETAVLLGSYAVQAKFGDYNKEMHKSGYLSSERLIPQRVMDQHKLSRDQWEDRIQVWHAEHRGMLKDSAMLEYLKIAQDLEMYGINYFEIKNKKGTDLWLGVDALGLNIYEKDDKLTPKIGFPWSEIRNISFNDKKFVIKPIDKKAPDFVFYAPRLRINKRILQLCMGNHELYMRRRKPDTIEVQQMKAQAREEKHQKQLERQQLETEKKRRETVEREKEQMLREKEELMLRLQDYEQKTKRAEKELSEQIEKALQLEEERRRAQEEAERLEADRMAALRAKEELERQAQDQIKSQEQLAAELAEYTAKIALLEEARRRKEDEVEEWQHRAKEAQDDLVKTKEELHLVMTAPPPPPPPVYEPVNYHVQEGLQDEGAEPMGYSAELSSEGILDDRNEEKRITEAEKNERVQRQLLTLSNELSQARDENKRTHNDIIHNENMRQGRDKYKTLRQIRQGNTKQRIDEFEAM

How the values were obtained:
3×HA-SAPAP3 = target: T1, 3×HA-SAPAP3 (UniProt Q6PFD5); assay: co-IP; recombinant proteins co-expressed by AAV in striatal astrocytes in vivo; cleared striatal lysate (25 mM HEPES pH 7.5, 150 mM NaCl, 1% NP-40) on GFP-trap beads or anti-HA tag beads overnight at 4 °C; washes with 500 mM NaCl; blots for GFP and HA
T1 sequence: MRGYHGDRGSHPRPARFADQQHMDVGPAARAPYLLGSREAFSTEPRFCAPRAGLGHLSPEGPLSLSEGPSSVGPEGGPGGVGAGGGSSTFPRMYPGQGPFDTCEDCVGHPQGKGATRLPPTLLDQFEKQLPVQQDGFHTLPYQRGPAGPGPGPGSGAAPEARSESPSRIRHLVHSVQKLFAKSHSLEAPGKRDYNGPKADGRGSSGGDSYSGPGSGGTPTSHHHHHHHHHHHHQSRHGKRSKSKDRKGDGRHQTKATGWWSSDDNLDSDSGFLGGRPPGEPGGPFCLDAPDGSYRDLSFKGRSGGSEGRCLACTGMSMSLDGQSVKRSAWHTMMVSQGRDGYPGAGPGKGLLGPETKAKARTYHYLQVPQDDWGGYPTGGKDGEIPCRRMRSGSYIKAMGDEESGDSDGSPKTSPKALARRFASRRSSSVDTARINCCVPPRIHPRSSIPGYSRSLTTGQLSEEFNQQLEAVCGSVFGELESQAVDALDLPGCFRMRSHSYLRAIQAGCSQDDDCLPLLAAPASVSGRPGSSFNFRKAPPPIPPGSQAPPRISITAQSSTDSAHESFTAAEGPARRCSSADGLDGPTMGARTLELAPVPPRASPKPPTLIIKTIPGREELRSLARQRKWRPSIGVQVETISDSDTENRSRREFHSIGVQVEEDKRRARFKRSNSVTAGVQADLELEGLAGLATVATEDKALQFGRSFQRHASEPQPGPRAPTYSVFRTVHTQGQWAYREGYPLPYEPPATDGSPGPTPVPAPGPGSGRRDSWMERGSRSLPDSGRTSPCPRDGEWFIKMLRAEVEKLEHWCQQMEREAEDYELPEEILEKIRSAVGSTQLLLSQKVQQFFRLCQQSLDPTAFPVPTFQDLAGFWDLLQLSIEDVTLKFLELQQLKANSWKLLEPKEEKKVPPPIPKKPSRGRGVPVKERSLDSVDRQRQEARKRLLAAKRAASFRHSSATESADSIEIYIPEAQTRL

EZR–GFP = EZR–GFP (UniProt P26040); assay: as above
[1] = target: EZR (endogenous) (mouse (endogenous in striatum)) (UniProt P26040); assay: proximity ligation; Duolink PLA on fixed-frozen 20 μm striatal sections; rabbit anti-SAPAP3 with mouse anti-GLT1 or mouse anti-EZR; puncta counted within tdTomato+ astrocytes; WT mice, SAPAP3 KO mice and SAPAP3 KO mice injected with Astro GFP or Astro SAPAP3

Molecule | binding [1] | further results
EZR–GFP (from UniProt P26040 1-586) | – | binding (3×HA-SAPAP3): binds
3×HA-SAPAP3 (protein, UniProt Q6PFD5 1-977) MRGYHGDRGSHPRPARFADQQHMDVGPAARAPYLLGSREAFSTEPRFCAPRAGLGHLSPEGPLSLSEGPSSVGPEGGPGGVGAGGGSSTFPRMYPGQGPFDTCEDCVGHPQGKGATRLPPTLLDQFEKQLPVQQDGFHTLPYQRGPAGPGPGPGSGAAPEARSESPSRIRHLVHSVQKLFAKSHSLEAPGKRDYNGPKADGRGSSGGDSYSGPGSGGTPTSHHHHHHHHHHHHQSRHGKRSKSKDRKGDGRHQTKATGWWSSDDNLDSDSGFLGGRPPGEPGGPFCLDAPDGSYRDLSFKGRSGGSEGRCLACTGMSMSLDGQSVKRSAWHTMMVSQGRDGYPGAGPGKGLLGPETKAKARTYHYLQVPQDDWGGYPTGGKDGEIPCRRMRSGSYIKAMGDEESGDSDGSPKTSPKALARRFASRRSSSVDTARINCCVPPRIHPRSSIPGYSRSLTTGQLSEEFNQQLEAVCGSVFGELESQAVDALDLPGCFRMRSHSYLRAIQAGCSQDDDCLPLLAAPASVSGRPGSSFNFRKAPPPIPPGSQAPPRISITAQSSTDSAHESFTAAEGPARRCSSADGLDGPTMGARTLELAPVPPRASPKPPTLIIKTIPGREELRSLARQRKWRPSIGVQVETISDSDTENRSRREFHSIGVQVEEDKRRARFKRSNSVTAGVQADLELEGLAGLATVATEDKALQFGRSFQRHASEPQPGPRAPTYSVFRTVHTQGQWAYREGYPLPYEPPATDGSPGPTPVPAPGPGSGRRDSWMERGSRSLPDSGRTSPCPRDGEWFIKMLRAEVEKLEHWCQQMEREAEDYELPEEILEKIRSAVGSTQLLLSQKVQQFFRLCQQSLDPTAFPVPTFQDLAGFWDLLQLSIEDVTLKFLELQQLKANSWKLLEPKEEKKVPPPIPKKPSRGRGVPVKERSLDSVDRQRQEARKRLLAAKRAASFRHSSATESADSIEIYIPEAQTRL | – | binding (EZR–GFP): binds
SAPAP3 (endogenous) (protein, UniProt Q6PFD5 1-977) MRGYHGDRGSHPRPARFADQQHMDVGPAARAPYLLGSREAFSTEPRFCAPRAGLGHLSPEGPLSLSEGPSSVGPEGGPGGVGAGGGSSTFPRMYPGQGPFDTCEDCVGHPQGKGATRLPPTLLDQFEKQLPVQQDGFHTLPYQRGPAGPGPGPGSGAAPEARSESPSRIRHLVHSVQKLFAKSHSLEAPGKRDYNGPKADGRGSSGGDSYSGPGSGGTPTSHHHHHHHHHHHHQSRHGKRSKSKDRKGDGRHQTKATGWWSSDDNLDSDSGFLGGRPPGEPGGPFCLDAPDGSYRDLSFKGRSGGSEGRCLACTGMSMSLDGQSVKRSAWHTMMVSQGRDGYPGAGPGKGLLGPETKAKARTYHYLQVPQDDWGGYPTGGKDGEIPCRRMRSGSYIKAMGDEESGDSDGSPKTSPKALARRFASRRSSSVDTARINCCVPPRIHPRSSIPGYSRSLTTGQLSEEFNQQLEAVCGSVFGELESQAVDALDLPGCFRMRSHSYLRAIQAGCSQDDDCLPLLAAPASVSGRPGSSFNFRKAPPPIPPGSQAPPRISITAQSSTDSAHESFTAAEGPARRCSSADGLDGPTMGARTLELAPVPPRASPKPPTLIIKTIPGREELRSLARQRKWRPSIGVQVETISDSDTENRSRREFHSIGVQVEEDKRRARFKRSNSVTAGVQADLELEGLAGLATVATEDKALQFGRSFQRHASEPQPGPRAPTYSVFRTVHTQGQWAYREGYPLPYEPPATDGSPGPTPVPAPGPGSGRRDSWMERGSRSLPDSGRTSPCPRDGEWFIKMLRAEVEKLEHWCQQMEREAEDYELPEEILEKIRSAVGSTQLLLSQKVQQFFRLCQQSLDPTAFPVPTFQDLAGFWDLLQLSIEDVTLKFLELQQLKANSWKLLEPKEEKKVPPPIPKKPSRGRGVPVKERSLDSVDRQRQEARKRLLAAKRAASFRHSSATESADSIEIYIPEAQTRL | binds | –
Astro GFP–SAPAP3 (protein, UniProt Q6PFD5 1-977) MRGYHGDRGSHPRPARFADQQHMDVGPAARAPYLLGSREAFSTEPRFCAPRAGLGHLSPEGPLSLSEGPSSVGPEGGPGGVGAGGGSSTFPRMYPGQGPFDTCEDCVGHPQGKGATRLPPTLLDQFEKQLPVQQDGFHTLPYQRGPAGPGPGPGSGAAPEARSESPSRIRHLVHSVQKLFAKSHSLEAPGKRDYNGPKADGRGSSGGDSYSGPGSGGTPTSHHHHHHHHHHHHQSRHGKRSKSKDRKGDGRHQTKATGWWSSDDNLDSDSGFLGGRPPGEPGGPFCLDAPDGSYRDLSFKGRSGGSEGRCLACTGMSMSLDGQSVKRSAWHTMMVSQGRDGYPGAGPGKGLLGPETKAKARTYHYLQVPQDDWGGYPTGGKDGEIPCRRMRSGSYIKAMGDEESGDSDGSPKTSPKALARRFASRRSSSVDTARINCCVPPRIHPRSSIPGYSRSLTTGQLSEEFNQQLEAVCGSVFGELESQAVDALDLPGCFRMRSHSYLRAIQAGCSQDDDCLPLLAAPASVSGRPGSSFNFRKAPPPIPPGSQAPPRISITAQSSTDSAHESFTAAEGPARRCSSADGLDGPTMGARTLELAPVPPRASPKPPTLIIKTIPGREELRSLARQRKWRPSIGVQVETISDSDTENRSRREFHSIGVQVEEDKRRARFKRSNSVTAGVQADLELEGLAGLATVATEDKALQFGRSFQRHASEPQPGPRAPTYSVFRTVHTQGQWAYREGYPLPYEPPATDGSPGPTPVPAPGPGSGRRDSWMERGSRSLPDSGRTSPCPRDGEWFIKMLRAEVEKLEHWCQQMEREAEDYELPEEILEKIRSAVGSTQLLLSQKVQQFFRLCQQSLDPTAFPVPTFQDLAGFWDLLQLSIEDVTLKFLELQQLKANSWKLLEPKEEKKVPPPIPKKPSRGRGVPVKERSLDSVDRQRQEARKRLLAAKRAASFRHSSATESADSIEIYIPEAQTRL | binds | –
